Measurements from patent publication US9468662B2, “Use of the PAT nonapeptide in the treatment and prevention of neurodegenerative diseases” (ORPHIT, priority 2010, dated 2016).
Not every detail of the peptide structures is certain; ends, links or a residue may be inferred. No end group written: not given here.

Legend:
[1] = tested on: rat primary GABAergic medium spiny neurons; experiment: Cellular model of Huntington's disease, survival of rat primary GABAergic medium spiny neurons after glutamate injury; assay type: cell-based
From the text: GABAergic medium spiny neurons (MSNs) in the striatum represent the mostly affected cell population in HD brain. Being the main neuronal cell type of the striatum (85% in humans), GABAergic MSNs play a central role in the clinical manifestation of HD. GABA is viewed as the neurotransmitter that inhibits spontaneous involuntary movements, therefore loss of GABAergic MSNs is responsible for chorea development and other involuntary movements. The exquisite vulnerability of MSNs of striatum to degeneration in HD is caused by glutamate excitotoxicity that leads to neuronal dysfunction and death. Excessive activation of NMDA glutamate receptors is observed in post-mortem HD brain tissue (Kumar P. et al. Pharmacol. Rep. 2010; 62: 1). Because glutamate is toxic to GABAergic striatal neurons in vitro, it provides a useful model of HD (Freese A et al. Brain Res. 1990; 521: 254). In this in vitro test, GABAergic MSNs are exposed to glutamate injury. […] After 24 h of intoxication, viable GABAergic neurons are visualized and quantified by staining with a monoclonal anti-Glutamic Acid Decarboxylase antibody (specific for isoform GAD67). Glutamic acid decarboxylase is the first and rate-limiting enzyme involved in the biosynthesis of GABA from glutamic acid in higher brain regions. Brain derived neurotrophic factor (BDNF) is used as a positive control given that it has been identified as a factor required for the maturation and survival of MSNs (Ivkovic S et al. J. Neurosci. 1999; 19: 5409).
The information relative to the preparation of mesencephalic rat neurons, the culture conditions and treatment of cells are similar to those of Example 3.
On day 13 of culture, the medium was removed. […]
For each condition, 30 pictures per well were acquired (representing 80% of the total surface of the well) using ImageXpress (Molecular device) equipped with a LED at 20× magnification. […] The number of GAD67-positive neurons was automatically analyzed using MetaXpress software (Molecular device). […] All values were expressed as mean+/−SEM (s.e. mean) (n=6 wells per condition per culture).

[2] = tested on: mice having received the Aβ25-35 peptide; experiment: Alzheimer's model in mice, spontaneous alternation test (Y-maze); assay type: in vivo
[3] = tested on: mice having received the Aβ25-35 peptide; experiment: Alzheimer's model in mice, passive avoidance test; assay type: in vivo

EAKSQGGSD [PAT peptide, Glu-Ala-Lys-Ser-Gln-Gly-Gly-Ser-Asp (EAKSQGGSD)]
protection against glutamate injury ([1]; PAT 0.1 nM to 1 μM, 1 h pre-incubation, glutamate 10 μM 20 min, FIG. 6A): dose-dependent protection
number of viable GAD67-positive neurons per well (microscopic aspect) ([1]; PAT 10 nM before glutamate, FIG. 6B): restored the number of viable GAD67-positive neurons per well to a level similar to control conditions
potency compared with BDNF positive control ([1]; PAT vs BDNF 50 ng/mL, glutamate injury): more potent than BNDF
effect on learning deficits induced by the Aβ25-35 peptide (spontaneous alternation) ([2]; PAT 5 μg i.c.v. co-administered with Aβ25-35 peptide (9 nmol), tested at Day 7, FIG. 1): significant neuroprotective effect
effect on spontaneous alternation in mice given ScAβ peptide ([2]; PAT 5 μg i.c.v. co-administered with ScAβ control peptide, Day 7, FIG. 1): no effect
effect on spontaneous alternation, i.p. route ([2]; PAT i.p., Aβ25-35 i.c.v., FIG. 3): neuroprotective effect
dose above which the neuroprotective effect was observable ([2]; i.p. route, spontaneous alternation test): higher than 0.3 mg/kg of body weight
latency time to enter into the dark compartment ([3]; PAT 5 μg i.c.v. with Aβ25-35, compared to distilled water (V), retention 24 h after training, FIG. 2A): improved
latency time to escape ([3]; PAT 5 μg i.c.v. with Aβ25-35, compared to distilled water (V), retention 24 h after training, FIG. 2B): improved
effect in passive avoidance test, i.p. route ([3]; PAT i.p., Aβ25-35 i.c.v., FIG. 4): neuroprotective effect
dose above which the neuroprotective effect was observable ([3]; i.p. route, passive avoidance test, FIG. 4): higher than 0.3 mg/kg of body weight
